Record: PubChem BioAssay AID1259308 (NCATS, 2017)
In all, the deposit lists about 59,000 reagents; this is a part drawn at random. About 1,510 of all reagents (2.6%) were called active. 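Calls use total luciferase alone and ignore viability, so some active siRNAs may act by altering cell number.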 The numbers tell different reagents against one gene apart. No sequences are given here.

Assay: 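Candidate targets for better recombinant protein yield in mammalian cells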 (primary screen)
Cells: human HEK293 embryonic kidney cells stably expressing firefly luciferase (HEK-CMV-Luc2-Hygro)
Reagent: single siRNA against human genes, 0.8 pmol siRNA per well
Timing: 72 h
Detection: 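Luciferase light (ONE-Glo) measured on one replicate plate set and viability (CellTiter-Glo) on the other, scaled to a negative control siRNA, with robust z-scores and luciferase per cell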
Scale: total luciferase, z-score and total luciferase, % of control: higher = more reporter protein produced; luciferase per cell, z-score: higher = more reporter output per viable cell; viable cells, % of control: higher = more viable cells
Call rule: 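An siRNA counts as active if its total luciferase robust z-score exceeds 3; genes with two or more such siRNAs out of three were retested with fresh siRNAs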
Meaning of the calls: active = raised luciferase; inactive = no rise

gene,reagent no.,"total luciferase, z-score","total luciferase, % of control","luciferase per cell, z-score","viable cells, % of control",activity call
PLPP7,1,-0.993,62.1,-0.609,81.5,inactive
PLPP7,2,-0.632,69.3,-0.847,96.8,inactive
PLPP7,3,-0.695,68.1,-0.851,95.2,inactive
KDM4E,1,2.88,139,3.76,57.7,inactive
KDM4E,2,1.06,103,0.758,94.2,inactive
KDM4E,3,1.45,111,1.68,79.5,inactive
LELP1,1,0.00457,82,-0.566,106,inactive
LELP1,2,0.596,93.7,0.379,94.8,inactive
LELP1,3,0.385,89.5,1.07,75.6,inactive
HNRNPA1P4,1,-1.13,59.5,-1.01,86.7,inactive
HNRNPA1P4,2,-0.879,64.4,-1.27,100,inactive
HNRNPA1P4,3,-0.199,77.9,-0.769,107,inactive
BCDIN3D,1,0.0747,83.4,0.504,81.6,inactive
BCDIN3D,2,-0.737,67.2,-0.441,84.4,inactive
BCDIN3D,3,-0.125,79.4,0.732,73.2,inactive
NEK9,1,-0.996,62.1,-2.07,119,inactive
NEK9,2,1.22,106,1.24,85.8,inactive
NEK9,3,-0.479,72.4,-0.572,94,inactive
RSPH1,1,-0.166,78.6,-0.591,103,inactive
RSPH1,2,0.182,85.5,-0.17,99.9,inactive
RSPH1,3,-0.422,73.5,-0.468,92.9,inactive
PHF12,1,-0.0849,80.2,-0.0302,90.3,inactive
PHF12,2,-0.693,68.1,0.3,70.3,inactive
PHF12,3,0.676,95.3,1.25,76.7,inactive

4 successive entries already listed, quoted:
gene,reagent no.,"total luciferase, z-score","total luciferase, % of control","luciferase per cell, z-score","viable cells, % of control",activity call
LELP1,2,0.596,93.7,0.379,94.8,inactive
LELP1,3,0.385,89.5,1.07,75.6,inactive
HNRNPA1P4,1,-1.13,59.5,-1.01,86.7,inactive
HNRNPA1P4,2,-0.879,64.4,-1.27,100,inactive
